# Measured values: the supplement of paper PMC4604168 (melanoma cell lines)
# This is one part of the list. Repeats are few or missing, and single values can be far off.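 Imaging used 1,536-well plates; nuclei positive for cleaved PARP by antibody were divided by total DNA-stained nuclei to yield the apoptosis fraction. Doses for screening kept most cells viable, and cell lines differ markedly in resting and induced cleaved-PARP levels.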
# Legend:
# Test in all cases: cleaved PARP positive nuclei fraction relative to DMSO control; melanoma cells; higher = more apoptosis
# Conditions in all cases: library dose: low library concentration; 72 h
# CBRC034 = test system: CBRC034 (line from a melanoma biopsy)
# COLO792 = test system: COLO792
# COLO800 = test system: COLO800
# COLO829 = test system: COLO829
# G361 = test system: G361
# IPC-298 = test system: IPC-298
# IST-MEL1 = test system: IST-MEL1
# LB2518-MEL = test system: LB2518-MEL
# LOXIMVI = test system: LOXIMVI
# MZ2-MEL = test system: MZ2-MEL
# MeWo = test system: MeWo
# RPMI7951 = test system: RPMI7951
# RVH-421 = test system: RVH-421
# SkMel28 = test system: SkMel28
# SkMel30 = test system: SkMel30
# SkMel5 = test system: SkMel5
# UACC257 = test system: UACC257
# UACC62 = test system: UACC62
Structure (SMILES),cleaved PARP positive nuclei fraction (CBRC034) [%],cleaved PARP positive nuclei fraction (COLO792) [%],cleaved PARP positive nuclei fraction (COLO800) [%],cleaved PARP positive nuclei fraction (COLO829) [%],cleaved PARP positive nuclei fraction (G361) [%],cleaved PARP positive nuclei fraction (IPC-298) [%],cleaved PARP positive nuclei fraction (IST-MEL1) [%],cleaved PARP positive nuclei fraction (LB2518-MEL) [%],cleaved PARP positive nuclei fraction (LOXIMVI) [%],cleaved PARP positive nuclei fraction (MZ2-MEL) [%],cleaved PARP positive nuclei fraction (MeWo) [%],cleaved PARP positive nuclei fraction (RPMI7951) [%],cleaved PARP positive nuclei fraction (RVH-421) [%],cleaved PARP positive nuclei fraction (SkMel28) [%],cleaved PARP positive nuclei fraction (SkMel30) [%],cleaved PARP positive nuclei fraction (SkMel5) [%],cleaved PARP positive nuclei fraction (UACC257) [%],cleaved PARP positive nuclei fraction (UACC62) [%]
"CC1(C)NC(=O)N(c2ccc([N+](=O)[O-])c(C(F)(F)F)c2)C1=O [nilutamide] + Cc1cc([N+](=O)[O-])ccc1NS(=O)(=O)c1cc(Cl)ccc1Cl [FH535] (first compound 1 µM, partner dose 1 µM)",188,101,151,103,146,38.6,32.2,97.1,72.5,61.5,27.5,67.4,90.8,147,24.4,139,27.8,124
"C#Cc1cccc(Nc2ncnc3cc(OCCOC)c(OCCOC)cc23)c1 [erlotinib] + COc1cc(N2CCC(N3CCN(C)CC3)CC2)ccc1Nc1ncc(Cl)c(Nc2ccccc2S(=O)(=O)C(C)C)n1 [NVP-TAE684] (first compound 0.8 µM, partner dose 0.08 µM)",83.8,125,103,86,48.3,88.8,41,79.4,69.7,201,338,75.9,63.7,165,24.7,41.8,136,166
"O=C(CCCCCCC(=O)Nc1ccccc1)NO [vorinostat] + COc1cc2ncnc(Nc3ccc(Oc4ccccc4)cc3)c2cc1OC [SrcI1] (first compound 0.08 µM, partner dose 2 µM)",92,87.4,26.8,69.7,75.5,55.5,44.7,62.9,78.3,124,111,37.7,102,114,123,58.3,146,342
"Cn1nnc2c(C(N)=O)ncn2c1=O [temozolomide] + CCCCCCCCCCCC1=C(O)C(=O)C=C(O)C1=O [Embelin] (first compound 2 µM, partner dose 1.2 µM)",82.7,257,109,89.9,72.8,41.6,40.9,83.5,74.3,40.3,102,77.9,132,129,60.1,138,67.1,92.2
"Cc1cc(N2CCOCC2)cc2[nH]c(-c3c(NC[C@@H](O)c4cccc(Cl)c4)cc[nH]c3=O)nc12 + O=C(Nc1ccccc1)c1cc([N+](=O)[O-])ccc1Cl [GW9662] (first compound 0.2 µM, partner dose 2 µM)",186,87.1,254,90.9,191,164,31.5,86.6,68.6,140,58.5,30.7,105,102,53,118,153,106
"Cc1cc(N2CCOCC2)cc2[nH]c(-c3c(NC[C@@H](O)c4cccc(Cl)c4)cc[nH]c3=O)nc12 + c1cc(-c2cnn3cc(-c4ccc(OCCN5CCCCC5)cc4)cnc23)ccn1 [Dorsomorphin] (first compound 0.2 µM, partner dose 0.4 µM)",92.3,145,116,67.2,91.1,65.6,183,76.7,109,99.1,87.9,116,97.8,80.1,20.9,60.6,221,35.2
"CC(C)(C)c1cnc(CSc2cnc(NC(=O)C3CCNCC3)s2)o1 + CCCCCCCCCCCC1=C(O)C(=O)C=C(O)C1=O [Embelin] (first compound 0.01 µM, partner dose 1.2 µM)",250,139,34.8,90.6,96.9,29.8,39.5,104,47.8,57.2,51.2,86.8,41.2,118,17.4,97.4,90.7,350
"CC(C)(C)c1cnc(CSc2cnc(NC(=O)C3CCNCC3)s2)o1 + O=C1NC(=O)/C(=C/c2ccc(-c3ccc(F)cc3O)o2)S1 [AS252424] (first compound 0.01 µM, partner dose 1 µM)",51.8,133,77.1,145,201,107,55.5,89,71.5,85.8,71.9,80.1,45.8,83.7,24,53,109,73.9
"C=CCn1c(=O)c2cnc(Nc3ccc(N4CCN(C)CC4)cc3)nc2n1-c1cccc(C(C)(C)O)n1 + CCc1ccc(CCOc2ccc(CC3SC(=O)NC3=O)cc2)nc1 [pioglitazone] (first compound 0.02 µM, partner dose 2 µM)",180,84.7,116,112,288,88.8,44.8,112,98.6,71.9,140,89.7,66.1,51.7,122,224,65.2,88.1
"CO[C@@H]1[C@H](N(C)C(=O)c2ccccc2)C[C@H]2O[C@]1(C)n1c3ccccc3c3c4c(c5c6ccccc6n2c5c31)C(=O)NC4 [Midostaurin] + O=S(=O)(c1ccccc1)N(CC(F)(F)F)c1ccc(C(O)(C(F)(F)F)C(F)(F)F)cc1 [T0901317] (first compound 0.08 µM, partner dose 1.4 µM)",44.2,112,80.8,156,89.5,167,176,80,247,83.1,69.9,96.8,75.5,129,19.4,156,63.5,304
"Cn1nnc2c(C(N)=O)ncn2c1=O [temozolomide] + COc1cc(N2CCC(N3CCN(C)CC3)CC2)ccc1Nc1ncc(Cl)c(Nc2ccccc2S(=O)(=O)C(C)C)n1 [NVP-TAE684] (first compound 2 µM, partner dose 0.08 µM)",78.1,92.2,143,163,137,32,200,69.2,55.3,101,126,88.8,45.4,87.4,36.8,86.5,64.2,217
"O=C(Nc1cccc(Cl)c1)Nc1ncc(CCNc2ncnc3ccsc23)s1 + c1cc(-c2cnn3cc(-c4ccc(OCCN5CCCCC5)cc4)cnc23)ccn1 [Dorsomorphin] (first compound 0.0008 µM, partner dose 0.4 µM)",89.4,111,96.2,73.5,102,85.1,96,84.2,58.1,29.1,148,83.5,71.3,78.2,13.4,30.9,127,129
"COc1cc(Nc2ncc(F)c(Nc3ccc4c(n3)NC(=O)C(C)(C)O4)n2)cc(OC)c1OC [Tamatinib] + O=S(=O)(c1ccccc1)N(CC(F)(F)F)c1ccc(C(O)(C(F)(F)F)C(F)(F)F)cc1 [T0901317] (first compound 0.4 µM, partner dose 1.4 µM)",96.6,111,154,127,317,89.9,62.2,190,70,145,134,118,41.8,203,39.2,62.1,205,84.7
"Cn1c(Nc2ccc(C(F)(F)F)cc2)nc2cc(Oc3ccnc(-c4ncc(C(F)(F)F)[nH]4)c3)ccc21 + Oc1nc(-c2ccc(C(F)(F)F)cc2)nc2c1CSCC2 [XAV939] (first compound 0.08 µM, partner dose 2 µM)",129,684,93.1,118,136,162,50.5,537,98.4,177,165,63.3,277,192,88.6,288,1370,208
"Cc1cc(N2CCOCC2)cc2[nH]c(-c3c(NC[C@@H](O)c4cccc(Cl)c4)cc[nH]c3=O)nc12 + N#Cc1c(O)c2c(-c3ccc(-c4ccccc4O)cc3)csc2[nH]c1=O [A769662] (first compound 0.2 µM, partner dose 2 µM)",130,78.6,167,44.6,95.3,43.8,90.2,85.5,150,111,159,93.7,58.9,153,23.4,205,89.5,224
"O=C(Nc1cccc(Cl)c1)Nc1ncc(CCNc2ncnc3ccsc23)s1 + Cn1cc(/C=C2\C(=O)Nc3cccnc32)c2ccccc21 [GW441756] (first compound 0.0008 µM, partner dose 0.4 µM)",86.9,60.7,131,120,123,81.2,113,126,58.8,28.7,35.9,35.8,24.8,162,21.9,95.7,32,28.9
"O=C(Nc1cccc(Cl)c1)Nc1ncc(CCNc2ncnc3ccsc23)s1 + O=c1cc(-c2cccc3c2Sc2ccccc2S3)oc(N2CCOCC2)c1 [KU55933] (first compound 0.0008 µM, partner dose 1 µM)",32.6,67.2,305,104,143,47.1,123,122,20.9,114,35.5,46.6,66.8,115,49.2,69.4,149,34.8
"Cc1nc(Nc2ncc(C(=O)Nc3c(C)cccc3Cl)s2)cc(N2CCN(CCO)CC2)n1 [dasatanib] + Cc1cc([N+](=O)[O-])ccc1NS(=O)(=O)c1cc(Cl)ccc1Cl [FH535] (first compound 0.004 µM, partner dose 1 µM)",737,291,165,215,66,202,125,95.3,181,87.8,67.3,243,140,163,52,79.1,274,163
"COc1cc(Nc2ncc(F)c(Nc3ccc4c(n3)NC(=O)C(C)(C)O4)n2)cc(OC)c1OC [Tamatinib] + O=C(O)C(=O)Nc1sc2c(c1C(=O)O)CCNC2 [TCS401] (first compound 0.4 µM, partner dose 1.66667 µM)",94.9,99,240,163,75.8,151,56,102,21.3,82.5,181,93.9,129,199,47.1,68,269,77.2

# As a short view, some entries already given.
Structure (SMILES),cleaved PARP positive nuclei fraction (CBRC034) [%],cleaved PARP positive nuclei fraction (COLO792) [%],cleaved PARP positive nuclei fraction (COLO800) [%],cleaved PARP positive nuclei fraction (COLO829) [%],cleaved PARP positive nuclei fraction (G361) [%],cleaved PARP positive nuclei fraction (IPC-298) [%],cleaved PARP positive nuclei fraction (IST-MEL1) [%],cleaved PARP positive nuclei fraction (LB2518-MEL) [%],cleaved PARP positive nuclei fraction (LOXIMVI) [%],cleaved PARP positive nuclei fraction (MZ2-MEL) [%],cleaved PARP positive nuclei fraction (MeWo) [%],cleaved PARP positive nuclei fraction (RPMI7951) [%],cleaved PARP positive nuclei fraction (RVH-421) [%],cleaved PARP positive nuclei fraction (SkMel28) [%],cleaved PARP positive nuclei fraction (SkMel30) [%],cleaved PARP positive nuclei fraction (SkMel5) [%],cleaved PARP positive nuclei fraction (UACC257) [%],cleaved PARP positive nuclei fraction (UACC62) [%]
"Cc1cc(N2CCOCC2)cc2[nH]c(-c3c(NC[C@@H](O)c4cccc(Cl)c4)cc[nH]c3=O)nc12 + N#Cc1c(O)c2c(-c3ccc(-c4ccccc4O)cc3)csc2[nH]c1=O [A769662] (first compound 0.2 µM, partner dose 2 µM)",130,78.6,167,44.6,95.3,43.8,90.2,85.5,150,111,159,93.7,58.9,153,23.4,205,89.5,224
"O=C(Nc1cccc(Cl)c1)Nc1ncc(CCNc2ncnc3ccsc23)s1 + Cn1cc(/C=C2\C(=O)Nc3cccnc32)c2ccccc21 [GW441756] (first compound 0.0008 µM, partner dose 0.4 µM)",86.9,60.7,131,120,123,81.2,113,126,58.8,28.7,35.9,35.8,24.8,162,21.9,95.7,32,28.9
